# Results of single-concentration screens

By UniProt entry, the sequences of proteins in these tests, tags left out. Residues count along the entry.
UniProt Q8IDJ8, 1-583: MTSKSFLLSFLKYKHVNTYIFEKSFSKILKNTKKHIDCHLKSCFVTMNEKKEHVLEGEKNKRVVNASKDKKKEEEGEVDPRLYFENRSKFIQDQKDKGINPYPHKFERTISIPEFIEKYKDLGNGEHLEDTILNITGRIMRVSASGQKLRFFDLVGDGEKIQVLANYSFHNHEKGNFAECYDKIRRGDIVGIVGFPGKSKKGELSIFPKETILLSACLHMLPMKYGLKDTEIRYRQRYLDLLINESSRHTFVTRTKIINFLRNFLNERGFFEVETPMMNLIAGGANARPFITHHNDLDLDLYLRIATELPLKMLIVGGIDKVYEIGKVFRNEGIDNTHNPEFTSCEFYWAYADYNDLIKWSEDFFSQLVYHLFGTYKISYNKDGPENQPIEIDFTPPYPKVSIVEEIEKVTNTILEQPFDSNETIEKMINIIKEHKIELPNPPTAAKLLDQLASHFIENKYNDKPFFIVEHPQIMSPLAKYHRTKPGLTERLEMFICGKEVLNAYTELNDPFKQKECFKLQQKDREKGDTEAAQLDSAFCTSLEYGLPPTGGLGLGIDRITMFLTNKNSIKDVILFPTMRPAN
UniProt Q4DA54, 1-478: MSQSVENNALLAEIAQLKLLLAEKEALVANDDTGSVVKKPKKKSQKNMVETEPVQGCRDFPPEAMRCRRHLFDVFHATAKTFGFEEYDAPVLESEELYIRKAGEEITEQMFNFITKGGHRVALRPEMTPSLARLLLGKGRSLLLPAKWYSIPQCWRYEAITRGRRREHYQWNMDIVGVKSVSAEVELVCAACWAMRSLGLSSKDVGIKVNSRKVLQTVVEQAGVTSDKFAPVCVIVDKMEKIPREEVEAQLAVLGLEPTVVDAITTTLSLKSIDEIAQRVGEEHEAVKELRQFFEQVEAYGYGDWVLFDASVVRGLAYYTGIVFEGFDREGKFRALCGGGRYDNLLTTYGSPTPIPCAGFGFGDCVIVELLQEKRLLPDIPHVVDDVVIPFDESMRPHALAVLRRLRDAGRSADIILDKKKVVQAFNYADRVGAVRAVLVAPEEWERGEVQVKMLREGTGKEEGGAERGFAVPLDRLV
UniProt I6X8D2, whole entry: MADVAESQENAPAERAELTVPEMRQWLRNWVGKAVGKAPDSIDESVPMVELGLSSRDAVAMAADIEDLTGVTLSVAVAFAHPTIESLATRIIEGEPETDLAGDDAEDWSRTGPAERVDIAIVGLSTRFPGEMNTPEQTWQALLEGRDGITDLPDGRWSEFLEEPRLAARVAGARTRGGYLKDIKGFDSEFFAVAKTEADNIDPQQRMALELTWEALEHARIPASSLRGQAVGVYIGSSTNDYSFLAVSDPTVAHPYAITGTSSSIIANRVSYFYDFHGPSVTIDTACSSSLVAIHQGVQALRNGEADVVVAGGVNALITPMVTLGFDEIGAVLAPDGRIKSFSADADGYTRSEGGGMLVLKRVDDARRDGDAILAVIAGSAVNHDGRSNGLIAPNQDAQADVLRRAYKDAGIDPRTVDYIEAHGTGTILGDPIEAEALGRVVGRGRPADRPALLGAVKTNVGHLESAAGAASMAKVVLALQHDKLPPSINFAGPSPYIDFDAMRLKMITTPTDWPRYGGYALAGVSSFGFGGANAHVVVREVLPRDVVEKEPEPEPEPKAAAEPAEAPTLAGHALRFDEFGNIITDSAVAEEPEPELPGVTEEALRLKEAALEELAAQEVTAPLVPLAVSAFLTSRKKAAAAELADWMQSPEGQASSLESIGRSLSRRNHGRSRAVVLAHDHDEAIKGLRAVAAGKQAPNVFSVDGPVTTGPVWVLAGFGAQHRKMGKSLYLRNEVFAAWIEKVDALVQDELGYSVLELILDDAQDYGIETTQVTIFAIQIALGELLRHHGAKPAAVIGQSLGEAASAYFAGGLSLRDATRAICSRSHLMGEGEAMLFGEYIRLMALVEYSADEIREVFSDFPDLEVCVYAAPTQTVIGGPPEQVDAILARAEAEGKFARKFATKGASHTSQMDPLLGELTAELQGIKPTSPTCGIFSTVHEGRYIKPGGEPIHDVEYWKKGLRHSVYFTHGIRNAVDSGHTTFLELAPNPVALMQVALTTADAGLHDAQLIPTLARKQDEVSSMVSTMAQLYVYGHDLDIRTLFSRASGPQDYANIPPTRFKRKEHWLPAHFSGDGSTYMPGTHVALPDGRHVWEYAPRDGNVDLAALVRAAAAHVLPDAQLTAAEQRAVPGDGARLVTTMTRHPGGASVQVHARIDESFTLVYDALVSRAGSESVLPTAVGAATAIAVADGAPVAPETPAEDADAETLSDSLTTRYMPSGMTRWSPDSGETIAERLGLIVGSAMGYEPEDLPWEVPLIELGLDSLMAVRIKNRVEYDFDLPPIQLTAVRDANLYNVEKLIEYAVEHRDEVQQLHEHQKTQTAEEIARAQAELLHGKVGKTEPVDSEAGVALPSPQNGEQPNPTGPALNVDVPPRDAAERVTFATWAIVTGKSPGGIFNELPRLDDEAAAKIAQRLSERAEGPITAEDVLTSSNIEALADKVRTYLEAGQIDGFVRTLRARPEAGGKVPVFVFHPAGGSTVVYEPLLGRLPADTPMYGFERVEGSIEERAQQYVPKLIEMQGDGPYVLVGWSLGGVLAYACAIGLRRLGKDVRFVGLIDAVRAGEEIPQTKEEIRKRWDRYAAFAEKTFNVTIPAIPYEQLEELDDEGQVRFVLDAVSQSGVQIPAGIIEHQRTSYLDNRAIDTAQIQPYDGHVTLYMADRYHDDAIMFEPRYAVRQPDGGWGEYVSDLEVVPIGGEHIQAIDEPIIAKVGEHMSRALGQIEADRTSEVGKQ

PfKRS1: 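Lysine-tRNA ligase, Plasmodium falciparum 3D7 (UniProt Q8IDJ8). Enzyme assay of the cytosolic lysyl-tRNA synthetase in 384-well plates, read by luminescence. Concentration: 30 µM. Direction is inferred from only a few compounds that gave an IC50; most scored high, so higher reads as stronger inhibition. Of about 69,000 compounds tested this way, about 49 (0.071%) reached 50% or more in at least one test.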
TcHisRS: 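Enzyme assay of histidyl-tRNA synthetase; the read-out is not stated. Target: Histidine-tRNA ligase, Trypanosoma cruzi CL Brener (UniProt Q4DA54). Concentration: 30 µM. Direction is inferred from retests: higher values go with stronger inhibition. About 69,000 compounds were tested under these conditions; 0.045% (about 31) showed 50% or more at least once.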
Pks13 thioesterase: 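Polyketide synthase Pks13, Mycobacterium tuberculosis (UniProt I6X8D2). Enzyme assay of the thioesterase domain of polyketide synthase 13; the read-out is not stated. Tested at 30 µM. Higher reads as stronger inhibition (inferred from which compounds were picked for retests). Size under these conditions: about 67,000 compounds, about 300 of them at 50% or above in at least one test.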

The filed quantity is “Percent Effect” (%).
The record does not define 0% and 100%; most values in the screen are far below 50% and negative numbers occur (in some assays of this library far below -100).
Compounds were drawn at random from those tested, without regard to their results.

{"structure": "CNC(=O)c1cc2c(nc1NCC(C)C)CCN(C)CC2", "PfKRS1": 4.083, "TcHisRS": 6.522, "Pks13 thioesterase": 49.94}
{"structure": "CCN1CC2(CC1=O)CN(C(C)=O)CCN(C(=O)NC)C2", "stereo": "centres unmarked", "PfKRS1": 3.431, "TcHisRS": 7.263, "Pks13 thioesterase": -8.337}
{"structure": "c1cncc(N2CCC(c3ccncc3)CC2)c1", "PfKRS1": -0.08491, "TcHisRS": 2.273, "Pks13 thioesterase": 8.69}
{"structure": "COc1cccc(CC(C)NC(=O)NCCNC(C)=O)c1", "stereo": "centres unmarked", "PfKRS1": -3.563, "TcHisRS": 3.797, "Pks13 thioesterase": -5.157}
{"structure": "Cc1cc(C)cc(CNC(C)c2c(C)nn(C)c2C)c1", "stereo": "centres unmarked", "PfKRS1": 1.708, "TcHisRS": 0, "Pks13 thioesterase": -13.99}
{"structure": "Cc1cccc(NC(=O)N2CCC3(CC(=O)N(c4ccsc4)C3)C2)c1", "stereo": "centres unmarked", "PfKRS1": 0.3769, "TcHisRS": 7.212, "Pks13 thioesterase": -19.22}
{"structure": "O=C(C1CCC1)N1CCc2[nH]cnc2C12CCN(C1CCOCC1)CC2", "PfKRS1": 3.569, "TcHisRS": 2.703, "Pks13 thioesterase": 2.471}
{"structure": "CCc1[nH]c2c(CNc3nccc(N)n3)cc(C)cc2c1C", "PfKRS1": -2.285, "TcHisRS": 32.8, "Pks13 thioesterase": -27.4}
{"structure": "CC1=Nc2c(c(=O)[nH]n2C(C)C)C(c2ccc(F)c(F)c2)S1", "stereo": "centres unmarked", "PfKRS1": 1.411, "TcHisRS": 12.57, "Pks13 thioesterase": -47.35}
{"structure": "Cc1cnn(CC(=O)NCC2(O)CCCc3ccccc32)c1", "stereo": "centres unmarked", "PfKRS1": 0.0729, "TcHisRS": 7.514, "Pks13 thioesterase": -5.398}
{"structure": "Cc1n[nH]c(C2CN(C(=O)c3cc(C4CC4)on3)CCO2)n1", "stereo": "centres unmarked", "PfKRS1": -0.8989, "TcHisRS": 7, "Pks13 thioesterase": -12.2}
{"structure": "O=C(c1n[nH]c2c1CN(C1CCOCC1)CC2)N1CCCC1", "PfKRS1": 4.254, "TcHisRS": 7.767, "Pks13 thioesterase": -17.53}
{"structure": "COC(=O)CCn1ccc(=O)c2ccc(OC)cc21", "PfKRS1": -3.062, "TcHisRS": 3.509, "Pks13 thioesterase": -6.941}
{"structure": "Cc1ccsc1C(=O)N1CCC(Nc2cccnc2)CC1", "PfKRS1": -23.05, "TcHisRS": 10.05, "Pks13 thioesterase": 2.306}
{"structure": "COc1cc(Cl)cc(C(=O)N2CCC3(CCCNC3)C2)c1", "stereo": "centres unmarked", "PfKRS1": 13.94, "TcHisRS": 1.149}
{"structure": "CC(C)CN1CC(O)CN(S(=O)(=O)c2ccc(F)cc2)CC1=O", "stereo": "centres unmarked", "PfKRS1": 6.562, "TcHisRS": 7.865, "Pks13 thioesterase": 5.381}
{"structure": "CC(C)N1CC(NC(=O)c2ccc(Cl)s2)CC1=O", "stereo": "centres unmarked", "PfKRS1": -1.168, "TcHisRS": -1.622, "Pks13 thioesterase": -16.95}
{"structure": "O=C(c1cnccn1)N1C[C@@H]2CC[C@H](C1)N(C(=O)Cc1ccsc1)C2", "PfKRS1": 1.663, "TcHisRS": 2.51, "Pks13 thioesterase": -2.29}
{"structure": "O=C(c1cnoc1)N1CCC[C@]2(C[C@@H](OCc3ccccn3)CO2)C1", "PfKRS1": 0.8347, "TcHisRS": 0.8264}
{"structure": "Cc1cc(=O)c(C(=O)N2CCC(C(O)Cc3ccccc3)CC2)c(C)[nH]1", "stereo": "centres unmarked", "PfKRS1": 2.631, "TcHisRS": 9.453, "Pks13 thioesterase": -11.92}
{"structure": "CC(C)c1cc2c(O)nc(CSCC(=O)NCc3ccccn3)nc2s1", "PfKRS1": 5.275, "TcHisRS": 6.818, "Pks13 thioesterase": -33.18}
{"structure": "Cc1nc(C(C)NC(=O)c2cn(CCC3CCCCC3)nn2)n[nH]1", "stereo": "centres unmarked", "PfKRS1": 2.345, "TcHisRS": 1.031, "Pks13 thioesterase": 20.8}
{"structure": "Cc1nc(-c2ccccc2)n(CC(=O)N(C(C)C)C(C)C)n1", "PfKRS1": 10.09, "TcHisRS": 1.504, "Pks13 thioesterase": -4.177}
{"structure": "O=C(O)c1ccnc(SCC(=O)c2ccccc2)c1", "PfKRS1": -2.744, "TcHisRS": 8.247, "Pks13 thioesterase": -28.12}
{"structure": "O=C(NC1CC1)N1CC[C@H]2[C@H]1CCN2c1nncs1", "PfKRS1": 8.264, "TcHisRS": 6.329, "Pks13 thioesterase": -30.83}
{"structure": "COc1cc(CNC2CCc3nc(C)nn3C2)cc2c1OCO2", "stereo": "centres unmarked", "PfKRS1": -0.06916, "TcHisRS": 2.857, "Pks13 thioesterase": -4.566}
{"structure": "Cc1ncnc(NCC(C)N(C)c2ccccc2)c1C", "stereo": "centres unmarked", "PfKRS1": 4.855, "TcHisRS": 0.5236, "Pks13 thioesterase": -8.428}
{"structure": "Cn1cc(C(=O)N[C@H]2CN(Cc3nccs3)[C@@H]3CCCO[C@H]23)cn1", "PfKRS1": 4.365, "TcHisRS": 4.902, "Pks13 thioesterase": -28.15}
{"structure": "CCO[C@@H]1CO[C@@]2(CCCN(Cc3scnc3C)C2)C1", "PfKRS1": 2.71, "TcHisRS": 0.8264, "Pks13 thioesterase": -12.31}
{"structure": "Cc1nc(C)n(CC2CCCN(CCNC(=O)OC(C)(C)C)C2)n1", "stereo": "centres unmarked", "PfKRS1": 5.485, "TcHisRS": 4.906, "Pks13 thioesterase": -10.69}
{"structure": "CC(=O)N1CCCc2sc(C(=O)Nc3ccc(C)nc3)nc21", "PfKRS1": 3.714, "TcHisRS": 3.448, "Pks13 thioesterase": -22.25}
{"structure": "OC(CNCCn1cccn1)c1ccc2c(c1)OCCO2", "stereo": "centres unmarked", "PfKRS1": 8.314, "TcHisRS": 0.3774, "Pks13 thioesterase": -12.82}
{"structure": "CCc1nc(C(=O)N(CC)CC(=O)Nc2cc(Cl)ccc2C)c[nH]1", "PfKRS1": 7.693, "TcHisRS": 1.327, "Pks13 thioesterase": -7.651}
{"structure": "CNC(=O)c1cccc(NC(=O)NCc2ccc(SC)cc2)c1C", "PfKRS1": 2.605, "TcHisRS": 6.494, "Pks13 thioesterase": 9.8}

Measurements from “University of Dundee, Small-Polar-MMV Screening Library” (2021), ChEMBL document CHEMBL3988442.